According to the supplement of paper PMC10849652:
Some of the results follow.

Amino acid sequences for entries named in this document (tags omitted). A change or cut given only in a name is not applied to a line headed by its entry.
UniProt P41567, whole entry, looked up: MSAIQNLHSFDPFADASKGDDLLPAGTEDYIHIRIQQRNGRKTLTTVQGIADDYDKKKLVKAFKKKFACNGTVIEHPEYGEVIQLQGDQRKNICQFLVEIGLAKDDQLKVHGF
UniProt Q9BVJ7: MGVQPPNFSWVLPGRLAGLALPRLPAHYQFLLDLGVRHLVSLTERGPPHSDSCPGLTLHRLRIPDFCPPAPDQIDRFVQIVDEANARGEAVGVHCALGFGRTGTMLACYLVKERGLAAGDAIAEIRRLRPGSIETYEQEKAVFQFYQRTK
UniProt Q5VYK3, whole entry, looked up: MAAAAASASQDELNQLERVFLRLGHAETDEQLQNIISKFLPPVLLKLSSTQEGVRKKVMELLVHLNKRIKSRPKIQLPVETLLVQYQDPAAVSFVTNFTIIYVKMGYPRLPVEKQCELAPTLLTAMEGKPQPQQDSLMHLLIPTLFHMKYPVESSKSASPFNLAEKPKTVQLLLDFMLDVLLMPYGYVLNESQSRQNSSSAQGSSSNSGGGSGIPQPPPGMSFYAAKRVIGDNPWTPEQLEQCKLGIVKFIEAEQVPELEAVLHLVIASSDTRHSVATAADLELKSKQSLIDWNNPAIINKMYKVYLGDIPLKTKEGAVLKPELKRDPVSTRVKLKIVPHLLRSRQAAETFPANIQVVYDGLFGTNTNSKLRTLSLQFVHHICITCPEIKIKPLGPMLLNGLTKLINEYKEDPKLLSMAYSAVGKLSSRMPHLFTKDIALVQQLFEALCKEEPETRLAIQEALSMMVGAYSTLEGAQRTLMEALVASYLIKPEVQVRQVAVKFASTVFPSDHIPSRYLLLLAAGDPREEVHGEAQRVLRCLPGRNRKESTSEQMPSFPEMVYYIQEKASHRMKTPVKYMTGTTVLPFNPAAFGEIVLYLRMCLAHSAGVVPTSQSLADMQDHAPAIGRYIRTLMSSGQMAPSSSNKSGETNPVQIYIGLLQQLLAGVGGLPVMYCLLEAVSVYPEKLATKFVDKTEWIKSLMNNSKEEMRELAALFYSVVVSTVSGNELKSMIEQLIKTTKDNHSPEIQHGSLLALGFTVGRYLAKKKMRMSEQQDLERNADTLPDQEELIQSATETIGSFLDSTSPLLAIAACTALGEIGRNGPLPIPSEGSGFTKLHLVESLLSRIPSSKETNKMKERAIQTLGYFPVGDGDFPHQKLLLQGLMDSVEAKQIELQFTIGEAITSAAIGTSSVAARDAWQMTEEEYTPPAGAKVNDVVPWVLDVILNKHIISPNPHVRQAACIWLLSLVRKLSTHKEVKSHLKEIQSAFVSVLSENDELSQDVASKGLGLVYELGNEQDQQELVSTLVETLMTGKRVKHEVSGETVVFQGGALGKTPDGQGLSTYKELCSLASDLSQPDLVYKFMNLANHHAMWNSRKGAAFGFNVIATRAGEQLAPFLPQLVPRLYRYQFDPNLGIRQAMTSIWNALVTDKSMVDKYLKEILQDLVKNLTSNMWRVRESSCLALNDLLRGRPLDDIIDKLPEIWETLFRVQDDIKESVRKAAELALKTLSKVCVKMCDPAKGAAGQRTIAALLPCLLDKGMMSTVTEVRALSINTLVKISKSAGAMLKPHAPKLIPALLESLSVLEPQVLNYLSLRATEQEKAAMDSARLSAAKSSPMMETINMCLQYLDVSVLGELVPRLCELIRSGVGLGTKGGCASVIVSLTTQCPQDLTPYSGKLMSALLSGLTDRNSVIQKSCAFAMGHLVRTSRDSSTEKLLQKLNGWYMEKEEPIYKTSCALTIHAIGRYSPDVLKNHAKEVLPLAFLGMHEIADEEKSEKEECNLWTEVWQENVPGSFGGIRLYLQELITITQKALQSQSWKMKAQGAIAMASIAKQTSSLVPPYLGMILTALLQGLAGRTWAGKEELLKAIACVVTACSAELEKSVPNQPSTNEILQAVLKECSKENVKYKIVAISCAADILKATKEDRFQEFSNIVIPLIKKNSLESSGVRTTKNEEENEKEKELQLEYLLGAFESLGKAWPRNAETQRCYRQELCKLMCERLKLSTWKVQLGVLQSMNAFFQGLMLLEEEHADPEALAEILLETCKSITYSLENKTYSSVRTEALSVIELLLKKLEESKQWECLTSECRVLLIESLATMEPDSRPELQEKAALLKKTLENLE
UniProt O77932: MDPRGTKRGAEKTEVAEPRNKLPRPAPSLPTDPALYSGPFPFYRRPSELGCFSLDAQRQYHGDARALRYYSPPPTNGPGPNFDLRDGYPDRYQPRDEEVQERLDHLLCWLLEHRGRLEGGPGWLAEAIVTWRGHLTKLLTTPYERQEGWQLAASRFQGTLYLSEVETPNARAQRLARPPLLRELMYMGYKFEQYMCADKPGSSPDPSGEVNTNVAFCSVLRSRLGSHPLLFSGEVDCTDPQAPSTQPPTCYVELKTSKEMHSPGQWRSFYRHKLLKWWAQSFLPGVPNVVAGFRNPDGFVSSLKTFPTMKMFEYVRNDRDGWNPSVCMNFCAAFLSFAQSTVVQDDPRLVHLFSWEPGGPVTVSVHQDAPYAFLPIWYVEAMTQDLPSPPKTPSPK
UniProt P24534: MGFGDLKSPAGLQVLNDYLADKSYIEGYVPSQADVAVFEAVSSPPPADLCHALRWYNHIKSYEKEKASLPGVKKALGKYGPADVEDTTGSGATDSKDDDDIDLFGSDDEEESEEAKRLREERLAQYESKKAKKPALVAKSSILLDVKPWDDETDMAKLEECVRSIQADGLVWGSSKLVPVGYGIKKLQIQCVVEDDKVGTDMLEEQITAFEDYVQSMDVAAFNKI
UniProt Q92785, whole entry, looked up: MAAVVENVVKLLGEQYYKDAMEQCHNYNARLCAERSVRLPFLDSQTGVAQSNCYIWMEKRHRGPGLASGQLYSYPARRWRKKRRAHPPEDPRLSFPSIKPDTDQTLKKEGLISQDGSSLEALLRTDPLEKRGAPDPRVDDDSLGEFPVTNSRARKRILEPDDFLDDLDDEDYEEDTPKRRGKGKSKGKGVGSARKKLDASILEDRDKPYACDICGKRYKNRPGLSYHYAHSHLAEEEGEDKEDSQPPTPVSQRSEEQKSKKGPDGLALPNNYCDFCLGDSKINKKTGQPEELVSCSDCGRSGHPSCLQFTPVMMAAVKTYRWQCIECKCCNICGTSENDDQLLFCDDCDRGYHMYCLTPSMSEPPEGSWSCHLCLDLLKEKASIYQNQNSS
UniProt Q9BV94: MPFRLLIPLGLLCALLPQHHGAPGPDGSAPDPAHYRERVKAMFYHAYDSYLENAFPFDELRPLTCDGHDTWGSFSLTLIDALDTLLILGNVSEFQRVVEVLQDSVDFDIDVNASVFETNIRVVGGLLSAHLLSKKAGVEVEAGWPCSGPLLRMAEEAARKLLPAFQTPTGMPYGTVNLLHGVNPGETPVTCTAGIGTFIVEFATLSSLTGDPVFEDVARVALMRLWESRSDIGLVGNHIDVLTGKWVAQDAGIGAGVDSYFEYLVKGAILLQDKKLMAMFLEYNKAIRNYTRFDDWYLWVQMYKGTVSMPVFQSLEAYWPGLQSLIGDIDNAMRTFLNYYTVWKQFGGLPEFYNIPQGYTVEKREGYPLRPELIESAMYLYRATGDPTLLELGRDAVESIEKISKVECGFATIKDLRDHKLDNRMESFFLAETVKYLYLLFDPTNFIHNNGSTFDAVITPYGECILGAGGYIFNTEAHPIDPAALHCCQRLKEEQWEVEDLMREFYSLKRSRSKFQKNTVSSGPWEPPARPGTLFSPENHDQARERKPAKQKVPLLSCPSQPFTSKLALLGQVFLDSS
UniProt Q9UHF1: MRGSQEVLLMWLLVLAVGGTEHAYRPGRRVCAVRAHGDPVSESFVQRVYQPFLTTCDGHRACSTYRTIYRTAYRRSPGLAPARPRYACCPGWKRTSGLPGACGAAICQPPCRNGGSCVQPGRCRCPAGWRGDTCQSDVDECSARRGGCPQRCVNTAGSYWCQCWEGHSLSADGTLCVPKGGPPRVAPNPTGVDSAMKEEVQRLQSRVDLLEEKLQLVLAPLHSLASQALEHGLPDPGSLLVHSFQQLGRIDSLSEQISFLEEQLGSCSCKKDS
UniProt P47813, whole entry, looked up: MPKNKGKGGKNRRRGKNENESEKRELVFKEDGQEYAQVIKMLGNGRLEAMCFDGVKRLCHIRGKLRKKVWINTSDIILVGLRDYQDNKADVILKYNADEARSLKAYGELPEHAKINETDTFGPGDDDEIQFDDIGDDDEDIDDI
UniProt O95905: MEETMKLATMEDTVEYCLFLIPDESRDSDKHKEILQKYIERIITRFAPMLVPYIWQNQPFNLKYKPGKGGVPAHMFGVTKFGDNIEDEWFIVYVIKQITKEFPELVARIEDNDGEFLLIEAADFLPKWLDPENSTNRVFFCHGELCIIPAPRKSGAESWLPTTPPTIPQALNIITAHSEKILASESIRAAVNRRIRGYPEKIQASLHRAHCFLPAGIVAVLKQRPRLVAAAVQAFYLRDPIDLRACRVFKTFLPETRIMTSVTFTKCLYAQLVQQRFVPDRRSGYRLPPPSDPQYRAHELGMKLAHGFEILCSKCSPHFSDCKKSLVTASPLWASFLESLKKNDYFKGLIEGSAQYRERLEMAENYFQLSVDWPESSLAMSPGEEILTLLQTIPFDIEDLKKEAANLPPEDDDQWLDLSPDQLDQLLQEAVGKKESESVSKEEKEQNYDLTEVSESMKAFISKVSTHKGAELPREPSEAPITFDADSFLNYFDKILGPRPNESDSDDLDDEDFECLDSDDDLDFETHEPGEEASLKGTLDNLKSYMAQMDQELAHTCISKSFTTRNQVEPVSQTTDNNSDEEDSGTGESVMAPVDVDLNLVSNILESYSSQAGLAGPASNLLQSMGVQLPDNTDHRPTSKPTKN
UniProt Q9NP97, whole entry, looked up: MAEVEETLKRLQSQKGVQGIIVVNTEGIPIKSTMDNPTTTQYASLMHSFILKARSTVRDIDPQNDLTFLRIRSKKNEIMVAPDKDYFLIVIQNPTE
UniProt O00418: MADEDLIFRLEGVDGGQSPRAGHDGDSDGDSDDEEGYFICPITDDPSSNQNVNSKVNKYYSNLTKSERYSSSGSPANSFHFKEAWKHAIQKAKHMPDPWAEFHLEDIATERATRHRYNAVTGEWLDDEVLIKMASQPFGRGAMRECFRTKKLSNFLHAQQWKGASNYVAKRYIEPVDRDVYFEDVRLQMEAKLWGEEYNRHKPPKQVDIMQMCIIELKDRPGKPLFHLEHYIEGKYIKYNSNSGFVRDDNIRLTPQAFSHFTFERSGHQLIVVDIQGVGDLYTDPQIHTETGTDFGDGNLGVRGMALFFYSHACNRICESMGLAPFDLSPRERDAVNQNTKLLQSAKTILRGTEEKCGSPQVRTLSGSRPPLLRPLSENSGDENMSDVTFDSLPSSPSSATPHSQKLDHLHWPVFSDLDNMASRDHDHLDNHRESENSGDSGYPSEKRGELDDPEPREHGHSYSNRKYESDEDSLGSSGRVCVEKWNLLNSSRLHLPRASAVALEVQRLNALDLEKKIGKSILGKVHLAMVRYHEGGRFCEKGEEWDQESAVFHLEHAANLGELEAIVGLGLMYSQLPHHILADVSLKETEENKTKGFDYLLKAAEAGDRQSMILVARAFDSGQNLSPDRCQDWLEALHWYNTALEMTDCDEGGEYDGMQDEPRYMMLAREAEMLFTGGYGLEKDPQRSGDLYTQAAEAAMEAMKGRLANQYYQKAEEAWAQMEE
UniProt Q7L8W6: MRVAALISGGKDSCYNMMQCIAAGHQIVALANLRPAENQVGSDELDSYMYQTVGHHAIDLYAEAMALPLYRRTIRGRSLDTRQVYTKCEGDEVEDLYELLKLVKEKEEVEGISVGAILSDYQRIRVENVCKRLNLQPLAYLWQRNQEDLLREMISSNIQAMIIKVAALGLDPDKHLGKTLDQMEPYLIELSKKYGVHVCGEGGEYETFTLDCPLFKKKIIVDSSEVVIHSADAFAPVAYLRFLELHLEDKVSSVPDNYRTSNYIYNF
UniProt Q9NZJ0: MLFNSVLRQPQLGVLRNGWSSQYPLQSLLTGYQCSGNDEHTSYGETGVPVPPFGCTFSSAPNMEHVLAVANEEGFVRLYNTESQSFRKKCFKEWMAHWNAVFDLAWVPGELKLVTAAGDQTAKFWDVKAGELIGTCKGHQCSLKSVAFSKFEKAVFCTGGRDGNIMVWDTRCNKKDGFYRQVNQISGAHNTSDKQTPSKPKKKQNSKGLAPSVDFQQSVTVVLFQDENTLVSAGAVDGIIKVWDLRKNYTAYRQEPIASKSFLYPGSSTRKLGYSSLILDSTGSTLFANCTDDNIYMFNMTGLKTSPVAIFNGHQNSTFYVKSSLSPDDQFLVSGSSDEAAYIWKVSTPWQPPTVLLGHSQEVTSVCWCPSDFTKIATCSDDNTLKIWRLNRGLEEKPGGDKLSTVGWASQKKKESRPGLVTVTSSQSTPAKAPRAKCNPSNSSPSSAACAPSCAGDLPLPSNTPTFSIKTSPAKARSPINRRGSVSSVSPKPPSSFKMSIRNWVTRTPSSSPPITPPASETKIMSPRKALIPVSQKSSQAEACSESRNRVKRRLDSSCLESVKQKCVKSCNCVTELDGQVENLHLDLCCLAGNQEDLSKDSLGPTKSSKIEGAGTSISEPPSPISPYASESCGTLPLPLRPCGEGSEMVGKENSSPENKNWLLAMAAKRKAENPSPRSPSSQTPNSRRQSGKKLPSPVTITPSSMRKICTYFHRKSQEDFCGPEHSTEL

Experiments:
Experiment in all cases: log2 fold change, soluble protein after heating vs DMSO (PISA); higher = thermal stabilisation; K562 lysate, 10 uM; active = over 0.2 and 3.5 SD of the protein, either way, in both replicates (recomputed)
[1] = compound: NCC(=O)Nc1ccc(-n2nc(C(F)(F)F)cc2-c2ccc3c(ccc4ccccc43)c2)cc1
In short: (§1)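 Quantification was by TMTpro 16plex LC-MS/MS with equalised channel sums, applied to the supernatant after 21,000xg for 90 min. Samples were crude K562 extract at 1 mg/mL protein in PBS pH 7.4 with 1 mM MgCl2, treated with 10 μM compound for 30 min, heated for 3 min across 48°C-58°C, pooled and brought to 0.5% NP-40 at 4°C. Values are log-two fold changes in thermal stability relative to solvent controls, from duplicates.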

vorinostat = compound: O=C(CCCCCCC(=O)Nc1ccccc1)NO [vorinostat]
In short: as §1

silmitasertib = compound: O=C(O)c1ccc2c(c1)nc(Nc1cccc(Cl)c1)c1ccncc12 [silmitasertib]
In short: as §1

[2] = compound: O=C1NC(=O)C(c2cnc3ccccn23)=C1c1cn2c3c(cc(F)cc13)CN(C(=O)N1CCCCC1)CC2
In short: as §1

entospletinib = compound: c1cn2cc(-c3ccc4cn[nH]c4c3)nc(Nc3ccc(N4CCOCC4)cc3)c2n1 [entospletinib]
In short: as §1

| Target | log2 fold change [1] | log2 fold change (vorinostat) | log2 fold change (silmitasertib) | log2 fold change [2] | log2 fold change (entospletinib) |
| --- | --- | --- | --- | --- | --- |
| EEA1 (UniProt Q15075) | inactive: -0.004 | inactive: 0.091 | inactive: -0.018 | inactive: 0 | inactive: -0.012 |
| EIF1 (UniProt P41567) | inactive: -0.032 | inactive: 0.12 | inactive: -0.024 | inactive: 0.036 | inactive: 0.028 |
| DUSP23 (UniProt Q9BVJ7) | inactive: -0.094 | inactive: 0.016 | inactive: 0.038 | inactive: -0.021 | inactive: -0.087 |
| ECPAS (UniProt Q5VYK3) | inactive: 0.023 | inactive: -0.106 | inactive: 0.025 | inactive: 0.007 | inactive: 0.003 |
| DXO (UniProt O77932) | inactive: 0.026 | inactive: -0.044 | inactive: -0.028 | inactive: 0.083 | inactive: -0.001 |
| DUS2 (UniProt Q9NX74) | inactive: -0.01 | inactive: -0.014 | active: 0.555 | inactive: -0.037 | inactive: -0.042 |
| EEF1B2 (UniProt P24534) | inactive: 0.004 | inactive: 0.075 | inactive: 0.004 | inactive: -0.021 | inactive: 0.005 |
| DPF2 (UniProt Q92785) | inactive: 0.015 | inactive: 0.041 | inactive: -0.042 | inactive: -0.019 | inactive: -0.059 |
| DPY19L1, A0A1B0GW05 | inactive: -0.04 | inactive: 0.148 | inactive: -0.018 | inactive: 0.025 | inactive: -0.024 |
| E4F1 (UniProt Q66K89) | inactive: 0.042 | inactive: 0.069 | inactive: 0.097 | inactive: 0.177 |  |
| EDEM2 (UniProt Q9BV94) | inactive: -0.017 | inactive: 0.041 | inactive: 0.064 | inactive: -0.195 | inactive: -0.051 |
| DPYSL2 (UniProt Q16555) | inactive: -0.009 | inactive: 0.045 | inactive: -0.052 | inactive: 0.035 | inactive: 0.078 |
| EGFL7 (UniProt Q9UHF1) | inactive: -0.189 |  |  |  |  |
| EIF1AX (UniProt P47813) | inactive: 0.025 | inactive: 0.047 | inactive: 0.06 | inactive: 0.012 | inactive: 0.038 |
| EDC3 (UniProt Q96F86) | inactive: 0.02 | active: -0.277 | inactive: 0 | inactive: -0.026 | inactive: 0.013 |
| DYM (UniProt Q7RTS9) | inactive: -0.039 | inactive: 0.029 | inactive: 0.061 | inactive: 0.062 | inactive: 0.087 |
| EFNB1 (UniProt P98172) | inactive: -0.077 | inactive: 0.145 | inactive: -0.047 | inactive: -0.048 | inactive: -0.038 |
| DUSP12 (UniProt Q9UNI6) | inactive: 0.009 | inactive: 0.031 | inactive: 0.028 | inactive: -0.016 | inactive: 0.007 |
| ECD isoform 3 (UniProt O95905) | inactive: 0.025 | inactive: -0.068 | inactive: -0.032 | inactive: -0.013 | inactive: -0.009 |
| DYNLRB1 (UniProt Q9NP97) | inactive: -0.023 | inactive: 0.124 | inactive: -0.048 | inactive: 0.07 | inactive: -0.086 |
| EEF2K (UniProt O00418) | inactive: 0.01 | inactive: -0.159 | inactive: 0.01 | inactive: -0.006 | inactive: 0.009 |
| DPP7 (UniProt Q9UHL4) | inactive: -0.003 | inactive: 0.102 | inactive: -0.032 | inactive: 0.018 | inactive: -0.016 |
| DPH6 (UniProt Q7L8W6) | inactive: -0.029 | inactive: -0.17 | inactive: 0 | inactive: -0.035 | inactive: -0.011 |
| ECE1 (UniProt P42892) | inactive: 0.018 | inactive: 0.135 | inactive: 0.012 | inactive: -0.018 | inactive: 0.032 |
| EI24 (UniProt O14681) | inactive: -0.118 | inactive: 0.02 | inactive: 0.07 | inactive: 0.06 | inactive: 0.023 |
| DTL (UniProt Q9NZJ0) | inactive: -0.011 | inactive: -0.165 | inactive: -0.042 | inactive: 0.052 |  |

Some of the entries so far, comma-delimited.
Target,log2 fold change [1],log2 fold change (vorinostat),log2 fold change (silmitasertib),log2 fold change [2],log2 fold change (entospletinib)
EEA1 (UniProt Q15075),inactive: -0.004,inactive: 0.091,inactive: -0.018,inactive: 0,inactive: -0.012
EIF1 (UniProt P41567),inactive: -0.032,inactive: 0.12,inactive: -0.024,inactive: 0.036,inactive: 0.028
DPF2 (UniProt Q92785),inactive: 0.015,inactive: 0.041,inactive: -0.042,inactive: -0.019,inactive: -0.059
"DPY19L1, A0A1B0GW05",inactive: -0.04,inactive: 0.148,inactive: -0.018,inactive: 0.025,inactive: -0.024
EIF1AX (UniProt P47813),inactive: 0.025,inactive: 0.047,inactive: 0.06,inactive: 0.012,inactive: 0.038
EEF2K (UniProt O00418),inactive: 0.01,inactive: -0.159,inactive: 0.01,inactive: -0.006,inactive: 0.009
DPP7 (UniProt Q9UHL4),inactive: -0.003,inactive: 0.102,inactive: -0.032,inactive: 0.018,inactive: -0.016
